Laboratory results from publication PMC7755654.
For at least one entry, the source does not settle the construct or the ends of the probe.

Molecular target: His6-Crp (cAMP receptor protein) (Shewanella putrefaciens CN32) (UniProt A0ABX8XCW1)
Test: DNase I footprinting
Conditions: 2 uM cAMP, 0.5 and 1.0 uM His6-Crp, protected -375 to -338, footprinting: 20 ul, 300 ng probe, 25 C 40 min, buffer not given, recombinant protein, residues 1-211, protein details: N-terminal His6 (pET-28a), label: 5'-FAM on forward strand, probe letters rebuilt from the primers and the genome

## GTAATAATGAACGGCTCGATTCTAGCACAGCGGGATTCTGCTGCAATGCGTTAACTCACATTTCAGGGAATGACAAGACCTCATATTTATCTCAATGAGATACCCATTGGCTATCAATGGAGAACAGTTTTGCCAACATTGATATTGGTTTATGTCGTATCAGGGTATCAACAAAGTGTGCCATCGATTACAATTTCACATTATGAAAATAACTTTGTAAAAAGGTAGGTTTGTTTTTGCAAATATTCGATAACTTGCGATTGTTTGATGATTGCATTAGCTTTAGTTGAAGTGCATAAATGCTCTGCTATAGGTCTGTTTTGACCAATTATTGTCCTGATAGTTAGAGCTAGGTCTCATTTTGCGCTTTTAAGTTTAATTTAATCGATAGATTTAGGCTTAGAATCAAATTTCTAATAAGTGAAATAGCATAAACTAGACTTATAAAAACTAATTTTGGCAATTTTGGAGATAGAGTAATGAACTGGCGTGCACT (double strand) [cymA promoter footprinting probe]
  binding result: binds
